From the supplement of paper PMC10849652
Some of the results follow.

By UniProt entry, the sequences of proteins in these tests, tags left out. Where a name states a change or a piece, a line headed by the entry shows the natural chain unless it says otherwise.
UniProt Q86SF2: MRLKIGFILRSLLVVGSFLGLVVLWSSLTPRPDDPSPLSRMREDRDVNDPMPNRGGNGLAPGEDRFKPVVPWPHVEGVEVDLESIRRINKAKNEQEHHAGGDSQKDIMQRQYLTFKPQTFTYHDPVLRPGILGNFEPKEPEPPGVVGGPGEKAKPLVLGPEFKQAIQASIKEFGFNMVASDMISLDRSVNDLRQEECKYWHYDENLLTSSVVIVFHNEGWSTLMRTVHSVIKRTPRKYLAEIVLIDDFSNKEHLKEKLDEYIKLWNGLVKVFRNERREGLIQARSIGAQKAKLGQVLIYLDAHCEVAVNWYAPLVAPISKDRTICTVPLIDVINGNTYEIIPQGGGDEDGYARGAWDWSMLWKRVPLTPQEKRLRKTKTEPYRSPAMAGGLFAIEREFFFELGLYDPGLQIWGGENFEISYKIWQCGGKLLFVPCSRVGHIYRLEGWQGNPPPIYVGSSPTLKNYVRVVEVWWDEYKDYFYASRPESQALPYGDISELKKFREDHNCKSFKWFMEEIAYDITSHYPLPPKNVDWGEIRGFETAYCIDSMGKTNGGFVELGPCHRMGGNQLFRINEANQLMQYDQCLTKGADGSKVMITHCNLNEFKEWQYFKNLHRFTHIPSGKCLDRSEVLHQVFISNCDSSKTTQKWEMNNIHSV
UniProt Q8WXD5: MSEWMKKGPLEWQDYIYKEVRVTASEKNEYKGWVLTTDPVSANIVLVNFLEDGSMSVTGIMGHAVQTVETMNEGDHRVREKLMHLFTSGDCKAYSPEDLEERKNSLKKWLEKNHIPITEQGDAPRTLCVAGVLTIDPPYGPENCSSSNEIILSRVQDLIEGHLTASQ
UniProt P30047: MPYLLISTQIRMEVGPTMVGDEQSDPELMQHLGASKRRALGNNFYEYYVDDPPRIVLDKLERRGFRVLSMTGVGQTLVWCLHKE
UniProt P41250: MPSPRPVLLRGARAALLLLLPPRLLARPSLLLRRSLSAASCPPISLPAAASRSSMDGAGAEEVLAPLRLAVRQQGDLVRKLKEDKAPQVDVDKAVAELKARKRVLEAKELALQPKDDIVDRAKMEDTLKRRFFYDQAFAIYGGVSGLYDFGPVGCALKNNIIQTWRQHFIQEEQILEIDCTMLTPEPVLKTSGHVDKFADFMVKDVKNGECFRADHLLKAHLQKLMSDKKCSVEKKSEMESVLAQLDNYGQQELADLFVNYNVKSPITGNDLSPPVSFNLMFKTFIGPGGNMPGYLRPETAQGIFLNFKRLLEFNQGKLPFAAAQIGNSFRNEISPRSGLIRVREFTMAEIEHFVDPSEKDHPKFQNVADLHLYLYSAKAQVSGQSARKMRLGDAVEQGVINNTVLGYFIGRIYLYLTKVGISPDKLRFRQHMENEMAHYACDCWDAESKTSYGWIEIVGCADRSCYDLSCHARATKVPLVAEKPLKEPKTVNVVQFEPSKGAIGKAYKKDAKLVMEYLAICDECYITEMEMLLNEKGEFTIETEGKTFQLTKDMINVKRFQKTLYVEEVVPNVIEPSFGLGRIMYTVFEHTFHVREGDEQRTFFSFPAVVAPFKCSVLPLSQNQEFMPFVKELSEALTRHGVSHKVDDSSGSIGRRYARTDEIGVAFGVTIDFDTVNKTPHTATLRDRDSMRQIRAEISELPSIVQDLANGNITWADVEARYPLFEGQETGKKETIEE
UniProt Q9NZC3: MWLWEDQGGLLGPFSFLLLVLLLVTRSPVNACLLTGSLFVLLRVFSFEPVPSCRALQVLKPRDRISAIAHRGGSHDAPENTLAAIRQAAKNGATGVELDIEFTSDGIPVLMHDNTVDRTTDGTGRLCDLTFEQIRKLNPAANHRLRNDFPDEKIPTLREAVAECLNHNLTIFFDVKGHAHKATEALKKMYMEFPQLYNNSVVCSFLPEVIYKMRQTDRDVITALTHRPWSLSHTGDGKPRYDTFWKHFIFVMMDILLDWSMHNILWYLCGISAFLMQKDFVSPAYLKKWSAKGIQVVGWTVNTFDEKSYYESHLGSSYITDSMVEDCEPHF
UniProt Q8NCL4: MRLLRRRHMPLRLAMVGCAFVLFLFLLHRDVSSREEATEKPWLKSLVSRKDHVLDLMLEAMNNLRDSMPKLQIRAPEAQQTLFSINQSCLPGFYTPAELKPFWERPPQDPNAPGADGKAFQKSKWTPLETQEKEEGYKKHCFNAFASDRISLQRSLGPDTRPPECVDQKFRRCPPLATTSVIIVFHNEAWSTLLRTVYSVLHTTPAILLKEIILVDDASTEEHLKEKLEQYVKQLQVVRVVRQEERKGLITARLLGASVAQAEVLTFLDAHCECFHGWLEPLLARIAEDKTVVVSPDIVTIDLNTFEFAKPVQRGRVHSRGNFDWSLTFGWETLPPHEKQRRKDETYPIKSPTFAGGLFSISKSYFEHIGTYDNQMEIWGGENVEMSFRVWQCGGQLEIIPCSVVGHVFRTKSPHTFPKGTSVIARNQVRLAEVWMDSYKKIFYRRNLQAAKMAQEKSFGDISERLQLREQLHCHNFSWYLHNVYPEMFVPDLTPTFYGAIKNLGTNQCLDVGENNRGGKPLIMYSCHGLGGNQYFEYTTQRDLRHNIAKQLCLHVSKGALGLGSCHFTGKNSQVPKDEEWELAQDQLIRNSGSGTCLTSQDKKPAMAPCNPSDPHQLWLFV
UniProt P23434: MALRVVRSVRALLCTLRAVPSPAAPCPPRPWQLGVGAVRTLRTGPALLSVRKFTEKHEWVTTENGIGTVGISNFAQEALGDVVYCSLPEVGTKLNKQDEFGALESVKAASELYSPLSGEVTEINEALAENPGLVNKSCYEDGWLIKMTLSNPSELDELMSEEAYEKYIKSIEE
UniProt Q9UPW0: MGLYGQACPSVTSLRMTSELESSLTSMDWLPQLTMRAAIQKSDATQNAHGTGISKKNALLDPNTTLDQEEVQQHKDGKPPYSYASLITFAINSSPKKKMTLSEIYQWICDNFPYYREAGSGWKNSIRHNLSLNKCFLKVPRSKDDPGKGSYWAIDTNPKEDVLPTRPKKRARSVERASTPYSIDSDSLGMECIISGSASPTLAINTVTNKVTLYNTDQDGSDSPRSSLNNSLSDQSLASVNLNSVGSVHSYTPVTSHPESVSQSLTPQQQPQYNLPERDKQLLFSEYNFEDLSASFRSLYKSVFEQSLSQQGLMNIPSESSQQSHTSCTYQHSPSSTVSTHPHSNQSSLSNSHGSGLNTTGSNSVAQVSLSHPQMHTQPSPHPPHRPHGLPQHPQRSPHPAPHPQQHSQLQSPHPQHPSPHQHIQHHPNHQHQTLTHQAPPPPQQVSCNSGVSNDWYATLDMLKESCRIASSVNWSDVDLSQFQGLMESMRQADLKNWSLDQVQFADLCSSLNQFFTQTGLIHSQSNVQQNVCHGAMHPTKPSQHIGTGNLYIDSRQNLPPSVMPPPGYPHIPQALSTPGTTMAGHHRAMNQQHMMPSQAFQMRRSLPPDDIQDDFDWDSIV
UniProt P04066: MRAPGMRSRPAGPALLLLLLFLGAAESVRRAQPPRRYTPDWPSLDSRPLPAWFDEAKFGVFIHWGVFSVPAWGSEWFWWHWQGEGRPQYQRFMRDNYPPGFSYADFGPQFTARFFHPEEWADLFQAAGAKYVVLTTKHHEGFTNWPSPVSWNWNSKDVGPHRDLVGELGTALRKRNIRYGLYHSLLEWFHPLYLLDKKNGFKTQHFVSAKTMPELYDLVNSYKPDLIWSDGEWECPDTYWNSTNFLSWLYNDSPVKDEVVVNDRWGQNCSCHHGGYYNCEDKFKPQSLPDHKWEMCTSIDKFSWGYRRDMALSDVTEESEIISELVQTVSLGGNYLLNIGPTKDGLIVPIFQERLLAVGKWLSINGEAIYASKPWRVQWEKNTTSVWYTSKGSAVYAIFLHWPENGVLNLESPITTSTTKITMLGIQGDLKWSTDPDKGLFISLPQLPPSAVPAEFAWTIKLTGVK
UniProt O75600: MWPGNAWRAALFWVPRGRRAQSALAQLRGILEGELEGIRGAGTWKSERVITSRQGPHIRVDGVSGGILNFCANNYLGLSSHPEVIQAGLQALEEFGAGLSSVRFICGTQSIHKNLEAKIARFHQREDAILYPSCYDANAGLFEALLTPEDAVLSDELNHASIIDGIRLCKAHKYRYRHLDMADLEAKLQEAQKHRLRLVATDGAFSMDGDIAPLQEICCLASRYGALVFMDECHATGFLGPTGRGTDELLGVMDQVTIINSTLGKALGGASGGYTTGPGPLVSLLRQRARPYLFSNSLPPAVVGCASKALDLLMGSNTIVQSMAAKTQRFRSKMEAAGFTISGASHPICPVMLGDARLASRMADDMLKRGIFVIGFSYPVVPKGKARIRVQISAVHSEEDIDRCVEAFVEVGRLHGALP
UniProt P50395: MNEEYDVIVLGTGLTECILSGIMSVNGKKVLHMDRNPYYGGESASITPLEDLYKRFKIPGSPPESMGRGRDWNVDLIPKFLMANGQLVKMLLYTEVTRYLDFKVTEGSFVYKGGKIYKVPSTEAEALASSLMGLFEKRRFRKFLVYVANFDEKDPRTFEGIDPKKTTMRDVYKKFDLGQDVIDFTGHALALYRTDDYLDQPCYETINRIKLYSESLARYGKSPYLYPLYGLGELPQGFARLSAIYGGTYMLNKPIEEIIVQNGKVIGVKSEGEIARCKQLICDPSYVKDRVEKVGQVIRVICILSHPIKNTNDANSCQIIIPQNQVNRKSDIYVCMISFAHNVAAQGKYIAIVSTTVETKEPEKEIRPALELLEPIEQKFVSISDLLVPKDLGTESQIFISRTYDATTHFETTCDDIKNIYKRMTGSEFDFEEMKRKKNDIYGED
UniProt P51116, whole entry, looked up: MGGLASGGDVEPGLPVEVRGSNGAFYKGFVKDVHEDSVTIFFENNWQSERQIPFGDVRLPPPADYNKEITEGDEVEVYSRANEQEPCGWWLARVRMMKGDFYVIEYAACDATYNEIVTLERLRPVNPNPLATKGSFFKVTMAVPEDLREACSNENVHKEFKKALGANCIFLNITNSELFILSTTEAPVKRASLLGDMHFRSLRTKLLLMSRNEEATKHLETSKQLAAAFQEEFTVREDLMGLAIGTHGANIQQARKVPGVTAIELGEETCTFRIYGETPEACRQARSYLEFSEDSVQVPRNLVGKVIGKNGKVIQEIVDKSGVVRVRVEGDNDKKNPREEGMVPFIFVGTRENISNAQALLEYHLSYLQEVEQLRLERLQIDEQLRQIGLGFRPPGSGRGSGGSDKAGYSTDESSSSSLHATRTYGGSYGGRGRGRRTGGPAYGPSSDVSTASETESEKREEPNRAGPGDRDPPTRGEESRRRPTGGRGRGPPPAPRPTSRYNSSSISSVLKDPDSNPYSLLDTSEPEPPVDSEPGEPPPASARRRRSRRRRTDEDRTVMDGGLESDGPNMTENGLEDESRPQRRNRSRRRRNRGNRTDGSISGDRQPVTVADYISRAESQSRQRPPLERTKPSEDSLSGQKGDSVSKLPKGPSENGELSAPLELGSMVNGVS
UniProt Q9UJY5: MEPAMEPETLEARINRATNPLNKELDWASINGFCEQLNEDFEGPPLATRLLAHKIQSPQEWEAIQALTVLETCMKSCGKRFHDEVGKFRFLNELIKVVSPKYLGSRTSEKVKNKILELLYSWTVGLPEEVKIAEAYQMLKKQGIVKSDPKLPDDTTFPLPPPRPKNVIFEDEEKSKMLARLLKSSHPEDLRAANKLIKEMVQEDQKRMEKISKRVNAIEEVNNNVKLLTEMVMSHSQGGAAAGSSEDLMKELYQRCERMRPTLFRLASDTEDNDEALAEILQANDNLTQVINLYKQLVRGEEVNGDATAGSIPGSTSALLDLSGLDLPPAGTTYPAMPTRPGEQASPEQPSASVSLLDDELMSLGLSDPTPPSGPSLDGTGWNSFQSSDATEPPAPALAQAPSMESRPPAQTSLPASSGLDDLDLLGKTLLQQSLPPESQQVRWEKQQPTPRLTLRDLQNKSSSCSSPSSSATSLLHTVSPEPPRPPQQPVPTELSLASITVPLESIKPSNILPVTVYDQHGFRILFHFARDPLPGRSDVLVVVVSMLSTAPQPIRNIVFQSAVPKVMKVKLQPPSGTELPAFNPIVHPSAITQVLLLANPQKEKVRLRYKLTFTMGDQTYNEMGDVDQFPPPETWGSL
UniProt P55789: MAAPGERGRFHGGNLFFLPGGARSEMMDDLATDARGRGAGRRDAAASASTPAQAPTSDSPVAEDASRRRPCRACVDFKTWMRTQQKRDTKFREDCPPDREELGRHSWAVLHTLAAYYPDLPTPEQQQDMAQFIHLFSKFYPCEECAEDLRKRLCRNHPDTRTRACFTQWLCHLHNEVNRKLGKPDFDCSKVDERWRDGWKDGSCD
UniProt Q8TB36: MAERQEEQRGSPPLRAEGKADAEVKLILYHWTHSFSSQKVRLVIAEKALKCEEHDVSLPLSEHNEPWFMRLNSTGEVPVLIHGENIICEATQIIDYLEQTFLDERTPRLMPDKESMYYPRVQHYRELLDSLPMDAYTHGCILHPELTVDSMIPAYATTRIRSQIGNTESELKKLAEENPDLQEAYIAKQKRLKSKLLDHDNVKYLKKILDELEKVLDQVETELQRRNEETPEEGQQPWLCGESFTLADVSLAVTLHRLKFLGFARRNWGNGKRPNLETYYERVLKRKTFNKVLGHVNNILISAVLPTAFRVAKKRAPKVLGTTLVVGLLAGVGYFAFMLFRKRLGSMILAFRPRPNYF

Compound: C1CCN(C1)C(=O)NC2=CC=CC(=C2)NC3=NC=C(C(=N3)NCCC4=CN=CN4)Br
Experiment: log2 fold change, soluble protein after heating vs DMSO (PISA); higher = thermal stabilisation; K562 cells, 10 uM, 30 min; active = over 0.2 and 3.5 SD of the protein, either way, in both replicates (recomputed)
Outline: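 K562 cells at 2×10^6 cells/mL were given 10 μM compound for 30 min. Aliquots then went through 3 min of heating across 48°C-58°C, were pooled, and were extracted in PBS with 0.5% NP-40 at 4°C, and the supernatant after 21,000xg for 90 min was quantified by TMTpro 16plex LC-MS/MS with channel sums equalised. Thermal stability relative to control samples, from duplicates, is given as log2 fold change.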

log2 fold change, inactive:
GALNT7 (UniProt Q86SF2) -0.032, GEMIN6 (UniProt Q8WXD5) -0.002, GBF1 (UniProt Q92538) -0.026, GCHFR (UniProt P30047) 0.135, GARS1 (UniProt P41250) 0.012, GDE1 (UniProt Q9NZC3) 0.003, GALNT6 (UniProt Q8NCL4) -0.062, GGCT (UniProt O75223) 0.033, FSCN1 (UniProt Q16658) -0.037, GCSH (UniProt P23434) -0.017, G6PD isoform 2 (UniProt P11413) -0.031, FYCO1 isoform 4 (UniProt Q9BQS8) 0.001, FOXJ3 (UniProt Q9UPW0) 0.059, GAR1 (UniProt Q9NY12) 0.022, FUCA1 (UniProt P04066) 0.012, GATD1 (UniProt Q8NB37) -0.006, GAMT (UniProt Q14353) -0.105, GCAT isoform 2 (UniProt O75600) -0.004, FRYL (UniProt O94915) -0.027, GGT2 isoform 3 (UniProt P36268) -0.094, FUT8 (UniProt Q9BYC5) 0.045, GDI2 (UniProt P50395) 0.012, FXR2 (UniProt P51116) -0.067, GGA1 isoform 6 (UniProt Q9UJY5) -0.014, GDPD1 (UniProt Q8N9F7) -0.037, FOXRED1 (UniProt Q96CU9) -0.026, FUBP3 (UniProt Q96I24) 0.009, GGT7 (UniProt Q9UJ14) -0.035, GHITM (UniProt Q9H3K2) 0.043, GFER (UniProt P55789) -0.012, GADD45GIP1 (UniProt Q8TAE8) 0.062, GDAP1 (UniProt Q8TB36) 0.003
